No constants are given. Whether binding was seen depends on the method and setting. Some results given as binding are weak or reduced against the parent protein; the word gives no strength.

Amino acid sequences for entries named in this document (tags omitted). A change or cut given only in a name is not applied to a line headed by its entry.
UniProt P11978: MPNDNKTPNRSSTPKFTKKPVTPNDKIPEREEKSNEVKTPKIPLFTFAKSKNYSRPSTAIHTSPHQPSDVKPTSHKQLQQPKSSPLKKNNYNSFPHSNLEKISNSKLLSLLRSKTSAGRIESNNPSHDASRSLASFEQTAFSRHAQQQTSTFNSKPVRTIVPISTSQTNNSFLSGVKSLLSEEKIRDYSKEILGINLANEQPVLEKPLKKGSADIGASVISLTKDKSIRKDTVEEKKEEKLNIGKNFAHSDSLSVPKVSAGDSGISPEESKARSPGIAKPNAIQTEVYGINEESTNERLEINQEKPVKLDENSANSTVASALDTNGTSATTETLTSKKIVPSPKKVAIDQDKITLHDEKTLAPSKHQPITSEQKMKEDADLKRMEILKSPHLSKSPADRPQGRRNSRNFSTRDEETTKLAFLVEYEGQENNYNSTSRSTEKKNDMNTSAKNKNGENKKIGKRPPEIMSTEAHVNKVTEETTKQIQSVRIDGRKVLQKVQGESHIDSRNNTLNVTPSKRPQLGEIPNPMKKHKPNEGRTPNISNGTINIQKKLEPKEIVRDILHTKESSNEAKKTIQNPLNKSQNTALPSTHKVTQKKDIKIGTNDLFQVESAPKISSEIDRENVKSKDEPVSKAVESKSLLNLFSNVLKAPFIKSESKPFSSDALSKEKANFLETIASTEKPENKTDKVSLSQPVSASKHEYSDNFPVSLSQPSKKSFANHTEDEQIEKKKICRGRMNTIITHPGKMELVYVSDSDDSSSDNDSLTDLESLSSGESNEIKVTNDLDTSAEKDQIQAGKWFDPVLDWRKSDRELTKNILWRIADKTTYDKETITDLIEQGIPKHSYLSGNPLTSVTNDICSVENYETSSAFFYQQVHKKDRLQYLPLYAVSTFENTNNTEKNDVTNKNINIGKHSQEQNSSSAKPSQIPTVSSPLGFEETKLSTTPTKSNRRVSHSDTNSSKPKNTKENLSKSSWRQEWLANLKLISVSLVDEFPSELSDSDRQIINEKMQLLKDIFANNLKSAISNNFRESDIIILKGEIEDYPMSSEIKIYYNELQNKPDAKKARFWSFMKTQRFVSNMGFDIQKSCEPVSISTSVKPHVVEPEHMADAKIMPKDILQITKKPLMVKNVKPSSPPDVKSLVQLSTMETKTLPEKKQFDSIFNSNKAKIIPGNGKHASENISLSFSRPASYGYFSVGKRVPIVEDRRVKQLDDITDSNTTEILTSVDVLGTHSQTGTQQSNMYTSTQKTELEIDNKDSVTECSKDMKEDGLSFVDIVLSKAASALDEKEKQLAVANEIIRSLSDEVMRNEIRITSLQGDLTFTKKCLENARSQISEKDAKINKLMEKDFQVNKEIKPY
UniProt P06700: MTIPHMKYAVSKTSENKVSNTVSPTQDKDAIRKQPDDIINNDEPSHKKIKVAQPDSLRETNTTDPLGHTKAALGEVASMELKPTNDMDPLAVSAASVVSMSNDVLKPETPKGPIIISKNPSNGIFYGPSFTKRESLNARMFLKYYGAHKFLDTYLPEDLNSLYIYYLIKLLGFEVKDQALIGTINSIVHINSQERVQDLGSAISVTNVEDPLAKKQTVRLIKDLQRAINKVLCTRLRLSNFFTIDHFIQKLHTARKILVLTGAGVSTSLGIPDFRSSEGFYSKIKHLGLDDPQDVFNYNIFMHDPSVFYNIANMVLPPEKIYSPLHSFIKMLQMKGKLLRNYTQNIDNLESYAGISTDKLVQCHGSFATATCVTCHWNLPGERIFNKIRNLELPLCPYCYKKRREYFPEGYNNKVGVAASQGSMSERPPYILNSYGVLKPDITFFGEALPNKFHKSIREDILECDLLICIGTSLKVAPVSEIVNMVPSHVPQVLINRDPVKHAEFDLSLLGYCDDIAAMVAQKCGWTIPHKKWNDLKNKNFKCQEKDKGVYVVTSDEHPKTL

The target of experiment [1] is Sir4I1311N (S. cerevisiae) (UniProt P11978). In words: tandem affinity co-purification.
Experiment [2] has as its target Sir4 (S. cerevisiae) (UniProt P11978). Description: tandem affinity co-purification.

For “Sir2 (from UniProt P06700 1-562) (enzyme)”, the binding result in experiment [1] and in experiment [2] was “binds” each time.

Values taken from publication doi:10.1101/346296.
